This note sets out measurements from article PMC8490982.

Chains of the proteins cited; added tags and fusions are not shown.
UniProt Q9H8M2: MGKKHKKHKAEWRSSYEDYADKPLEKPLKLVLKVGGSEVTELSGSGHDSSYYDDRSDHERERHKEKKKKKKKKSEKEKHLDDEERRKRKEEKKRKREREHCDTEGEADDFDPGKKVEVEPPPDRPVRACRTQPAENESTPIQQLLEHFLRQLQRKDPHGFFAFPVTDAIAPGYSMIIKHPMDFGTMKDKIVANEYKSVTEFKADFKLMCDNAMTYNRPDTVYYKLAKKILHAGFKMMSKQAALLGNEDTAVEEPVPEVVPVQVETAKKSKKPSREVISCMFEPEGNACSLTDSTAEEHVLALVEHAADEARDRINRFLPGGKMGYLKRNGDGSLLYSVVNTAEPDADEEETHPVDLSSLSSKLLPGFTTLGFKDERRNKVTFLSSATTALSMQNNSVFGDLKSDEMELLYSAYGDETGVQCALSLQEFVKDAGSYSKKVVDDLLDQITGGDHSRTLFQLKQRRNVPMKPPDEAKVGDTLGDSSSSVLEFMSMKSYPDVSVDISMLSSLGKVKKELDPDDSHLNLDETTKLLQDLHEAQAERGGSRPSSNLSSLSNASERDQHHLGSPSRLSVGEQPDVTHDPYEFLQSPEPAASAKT
UniProt Q6AI39: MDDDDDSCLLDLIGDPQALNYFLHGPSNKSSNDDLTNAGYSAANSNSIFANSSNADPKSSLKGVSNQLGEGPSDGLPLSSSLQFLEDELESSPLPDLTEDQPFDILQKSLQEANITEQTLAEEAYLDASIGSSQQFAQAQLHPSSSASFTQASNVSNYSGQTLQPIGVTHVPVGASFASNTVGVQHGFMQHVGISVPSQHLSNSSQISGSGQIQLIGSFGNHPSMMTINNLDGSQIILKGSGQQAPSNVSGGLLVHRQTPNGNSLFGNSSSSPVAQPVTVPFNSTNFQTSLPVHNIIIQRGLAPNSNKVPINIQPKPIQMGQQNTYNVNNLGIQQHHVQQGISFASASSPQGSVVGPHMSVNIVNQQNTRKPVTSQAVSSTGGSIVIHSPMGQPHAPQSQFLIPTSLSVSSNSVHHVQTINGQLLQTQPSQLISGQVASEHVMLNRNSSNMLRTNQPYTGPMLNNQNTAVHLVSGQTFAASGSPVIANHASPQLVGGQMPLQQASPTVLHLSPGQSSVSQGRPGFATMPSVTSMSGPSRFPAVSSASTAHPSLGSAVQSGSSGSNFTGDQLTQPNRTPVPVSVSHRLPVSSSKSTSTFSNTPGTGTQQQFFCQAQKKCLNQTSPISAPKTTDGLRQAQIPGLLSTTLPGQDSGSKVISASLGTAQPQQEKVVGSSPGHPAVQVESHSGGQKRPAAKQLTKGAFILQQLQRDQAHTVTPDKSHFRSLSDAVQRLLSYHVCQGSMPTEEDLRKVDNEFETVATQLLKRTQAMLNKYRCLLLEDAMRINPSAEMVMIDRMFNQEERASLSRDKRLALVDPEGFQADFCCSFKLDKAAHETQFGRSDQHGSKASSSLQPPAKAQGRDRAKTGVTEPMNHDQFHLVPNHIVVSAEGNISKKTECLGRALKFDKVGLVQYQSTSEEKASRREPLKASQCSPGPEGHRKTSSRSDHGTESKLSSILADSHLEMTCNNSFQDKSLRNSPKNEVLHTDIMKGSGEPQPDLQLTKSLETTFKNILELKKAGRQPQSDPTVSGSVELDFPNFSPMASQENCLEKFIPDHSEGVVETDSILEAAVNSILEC
UniProt Q9NZM4: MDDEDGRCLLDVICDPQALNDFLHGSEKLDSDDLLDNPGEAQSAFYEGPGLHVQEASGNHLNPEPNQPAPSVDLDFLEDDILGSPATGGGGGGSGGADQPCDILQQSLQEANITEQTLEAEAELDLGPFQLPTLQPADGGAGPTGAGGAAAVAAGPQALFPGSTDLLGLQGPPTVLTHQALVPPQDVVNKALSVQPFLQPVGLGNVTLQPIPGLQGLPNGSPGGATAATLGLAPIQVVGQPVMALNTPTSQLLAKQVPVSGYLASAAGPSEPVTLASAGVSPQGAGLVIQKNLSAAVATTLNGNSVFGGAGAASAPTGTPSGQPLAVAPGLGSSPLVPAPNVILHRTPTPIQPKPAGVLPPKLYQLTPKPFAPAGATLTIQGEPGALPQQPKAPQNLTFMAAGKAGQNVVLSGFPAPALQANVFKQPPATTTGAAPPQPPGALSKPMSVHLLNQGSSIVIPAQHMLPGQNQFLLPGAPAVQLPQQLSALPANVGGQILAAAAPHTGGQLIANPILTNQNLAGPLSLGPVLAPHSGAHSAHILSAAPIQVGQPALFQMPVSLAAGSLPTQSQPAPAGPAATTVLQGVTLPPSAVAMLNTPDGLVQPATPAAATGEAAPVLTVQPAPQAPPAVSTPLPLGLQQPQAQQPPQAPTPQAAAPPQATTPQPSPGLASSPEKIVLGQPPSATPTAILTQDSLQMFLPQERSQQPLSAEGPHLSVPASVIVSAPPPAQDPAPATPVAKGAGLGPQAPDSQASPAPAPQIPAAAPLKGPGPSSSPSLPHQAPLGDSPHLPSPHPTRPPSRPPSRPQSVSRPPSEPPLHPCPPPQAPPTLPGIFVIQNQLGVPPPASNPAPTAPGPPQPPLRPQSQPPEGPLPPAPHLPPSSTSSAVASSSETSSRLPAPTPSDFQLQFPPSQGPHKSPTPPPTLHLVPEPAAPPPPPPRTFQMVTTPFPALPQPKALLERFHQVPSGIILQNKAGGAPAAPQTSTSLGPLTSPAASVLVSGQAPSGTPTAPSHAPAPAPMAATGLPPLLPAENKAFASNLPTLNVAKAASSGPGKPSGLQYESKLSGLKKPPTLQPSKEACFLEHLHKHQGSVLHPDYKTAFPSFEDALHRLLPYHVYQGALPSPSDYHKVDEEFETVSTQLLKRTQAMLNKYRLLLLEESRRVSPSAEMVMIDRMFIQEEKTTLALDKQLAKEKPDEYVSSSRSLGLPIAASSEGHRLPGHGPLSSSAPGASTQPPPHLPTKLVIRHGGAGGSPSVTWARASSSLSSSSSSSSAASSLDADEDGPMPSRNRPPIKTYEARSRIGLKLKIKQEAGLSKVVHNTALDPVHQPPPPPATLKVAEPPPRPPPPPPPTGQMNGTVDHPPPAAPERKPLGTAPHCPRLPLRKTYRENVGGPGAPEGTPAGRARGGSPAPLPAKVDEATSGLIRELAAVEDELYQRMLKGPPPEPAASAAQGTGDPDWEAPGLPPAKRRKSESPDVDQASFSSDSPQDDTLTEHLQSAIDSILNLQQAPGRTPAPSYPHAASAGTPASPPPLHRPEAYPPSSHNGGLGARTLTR

These are yes or no findings as the source states them, for the method shown. In cells and extracts the contact can be indirect. These calls come from enrichment with a bait or labelling near it, and not all partners need be listed.

The experiment has as its target TurboID-tagged BRD9 (human) (UniProt Q9H8M2). Briefly: proximity labelling.

As to GLTSCR1L (from UniProt Q6AI39 1-1079), the binding result is given as “binds”.
With GLTSCR1 (from UniProt Q9NZM4 1-1560) the entry was “binds”.
